# Measurements taken from patent US20140011978A1.
# By UniProt entry, the sequences of proteins in these tests, tags left out. Where a name states a change or a piece, a line headed by the entry shows the natural chain unless it says otherwise. Chains listed by the source or under a name are the forms on record and can include a tag or linker. Residues count along the entry.
# UniProt P01137, residues 279-390: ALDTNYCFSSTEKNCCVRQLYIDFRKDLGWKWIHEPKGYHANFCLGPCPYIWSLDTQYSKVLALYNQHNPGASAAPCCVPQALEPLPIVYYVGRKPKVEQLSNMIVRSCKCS
# UniProt P09038, residues 135-288: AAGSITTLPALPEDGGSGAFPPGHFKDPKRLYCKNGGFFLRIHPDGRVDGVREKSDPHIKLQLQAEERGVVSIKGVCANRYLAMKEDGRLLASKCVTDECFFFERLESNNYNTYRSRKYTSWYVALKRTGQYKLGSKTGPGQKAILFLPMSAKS
# UniProt P01127, residues 82-190: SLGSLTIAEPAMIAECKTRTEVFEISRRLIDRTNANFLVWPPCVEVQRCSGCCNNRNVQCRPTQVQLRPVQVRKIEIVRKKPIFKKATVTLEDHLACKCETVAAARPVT
# UniProt P24593, residues 21-272: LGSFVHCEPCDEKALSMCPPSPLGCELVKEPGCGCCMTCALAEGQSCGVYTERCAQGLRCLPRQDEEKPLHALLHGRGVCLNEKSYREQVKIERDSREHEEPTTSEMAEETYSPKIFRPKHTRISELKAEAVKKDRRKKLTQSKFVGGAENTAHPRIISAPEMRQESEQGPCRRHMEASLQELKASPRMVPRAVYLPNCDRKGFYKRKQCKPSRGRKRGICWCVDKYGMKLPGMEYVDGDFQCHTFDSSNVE
# VEGF-A165 (P15692, form named): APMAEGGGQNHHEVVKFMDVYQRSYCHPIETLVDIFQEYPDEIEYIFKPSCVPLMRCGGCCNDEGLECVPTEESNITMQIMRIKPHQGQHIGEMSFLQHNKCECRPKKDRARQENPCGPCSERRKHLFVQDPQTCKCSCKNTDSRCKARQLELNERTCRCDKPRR
# UniProt P17936, residues 28-291: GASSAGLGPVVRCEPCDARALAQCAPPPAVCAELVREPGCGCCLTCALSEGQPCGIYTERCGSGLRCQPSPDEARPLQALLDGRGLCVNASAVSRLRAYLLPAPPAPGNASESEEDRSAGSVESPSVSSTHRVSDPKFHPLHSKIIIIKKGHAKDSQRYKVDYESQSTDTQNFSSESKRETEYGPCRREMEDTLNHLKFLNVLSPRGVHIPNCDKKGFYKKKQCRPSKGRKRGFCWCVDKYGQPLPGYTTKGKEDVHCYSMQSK
# No constants are given. Whether binding was seen depends on the method and setting. Some results given as binding are weak or reduced against the parent protein; the word gives no strength.
# T1: TGF-β2 (UniProt P61812)
# T1 sequence (looked up): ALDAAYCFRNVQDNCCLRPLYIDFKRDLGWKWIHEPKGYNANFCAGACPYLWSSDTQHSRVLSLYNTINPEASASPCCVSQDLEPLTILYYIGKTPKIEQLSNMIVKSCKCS
# T2: FGF-10 (UniProt O15520)
# T2 sequence (looked up): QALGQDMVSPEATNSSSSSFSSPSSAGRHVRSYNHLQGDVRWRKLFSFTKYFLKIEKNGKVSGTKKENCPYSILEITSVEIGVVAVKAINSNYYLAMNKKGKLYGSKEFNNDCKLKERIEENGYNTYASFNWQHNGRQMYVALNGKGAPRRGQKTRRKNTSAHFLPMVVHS
# T3: BDNF (UniProt P23560)
# T3 sequence (looked up): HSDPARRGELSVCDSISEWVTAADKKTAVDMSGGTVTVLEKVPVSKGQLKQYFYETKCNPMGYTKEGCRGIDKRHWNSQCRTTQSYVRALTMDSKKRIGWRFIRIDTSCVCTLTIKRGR
# T4: NT-3 (UniProt P20783)
# T4 sequence (looked up): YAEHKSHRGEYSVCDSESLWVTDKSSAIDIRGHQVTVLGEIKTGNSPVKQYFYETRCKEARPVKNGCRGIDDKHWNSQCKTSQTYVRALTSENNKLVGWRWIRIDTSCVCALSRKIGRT
# T5: BMP-2 (UniProt P12643)
# T5 sequence (looked up): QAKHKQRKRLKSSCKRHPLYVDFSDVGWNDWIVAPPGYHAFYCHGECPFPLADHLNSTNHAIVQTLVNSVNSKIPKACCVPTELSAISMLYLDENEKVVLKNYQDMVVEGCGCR
# T6: FGF-7 (UniProt P21781)
# T6 sequence (looked up): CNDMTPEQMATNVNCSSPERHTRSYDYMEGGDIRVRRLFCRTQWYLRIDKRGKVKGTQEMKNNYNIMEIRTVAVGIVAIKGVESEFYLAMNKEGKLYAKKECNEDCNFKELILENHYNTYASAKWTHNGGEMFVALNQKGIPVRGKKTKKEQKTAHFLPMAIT
# T7: PlGF-2 (UniProt P49763)
# T7 sequence (looked up): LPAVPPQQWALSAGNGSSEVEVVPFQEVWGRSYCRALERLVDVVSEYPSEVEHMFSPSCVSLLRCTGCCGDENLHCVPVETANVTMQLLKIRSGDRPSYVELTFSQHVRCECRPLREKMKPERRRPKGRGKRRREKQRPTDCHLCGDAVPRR
# T8: VEGF-B (UniProt P49765)
# T8 sequence (looked up): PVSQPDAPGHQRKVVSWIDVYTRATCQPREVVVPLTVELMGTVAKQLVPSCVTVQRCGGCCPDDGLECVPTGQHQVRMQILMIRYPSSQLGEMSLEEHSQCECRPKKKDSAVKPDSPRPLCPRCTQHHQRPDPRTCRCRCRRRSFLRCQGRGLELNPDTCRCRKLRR
# What was measured:
# TGF-β2 = target: T1, TGF-β2; assay: ELISA: growth factor coated, Fg fragment in solution, A450 (methods analogous to Example 3)
# FGF-10 = target: T2, FGF-10; assay: as above
# BDNF = target: T3, BDNF; assay: as above
# TGF-β1 = TGF-β1 (UniProt P01137); assay: as above
# NT-3 = target: T4, NT-3; assay: as above
# FGF-2 = FGF-2 (UniProt P09038); assay: as above
# BMP-2 = target: T5, BMP-2; assay: as above
# PDGF-BB = PDGF-BB (UniProt P01127); assay: as above
# IGF-BP5 = IGF-BP5 (UniProt P24593); assay: as above
# PDGF-DD = PDGF-DD (UniProt Q9GZP0); assay: as above
# FGF-7 = target: T6, FGF-7; assay: as above
# VEGF-A165 = VEGF-A165 (UniProt P15692); assay: as above
# PlGF-2 = target: T7, PlGF-2; assay: as above
# IGF-BP3 = IGF-BP3 (UniProt P17936); assay: as above
# VEGF-B = target: T8, VEGF-B; assay: ELISA, cytokine coated, Fg β15-66 in solution (methods as Example 3)
binding (TGF-β2),binding (FGF-10),binding (BDNF),binding (TGF-β1),binding (NT-3),binding (FGF-2),binding (BMP-2),binding (PDGF-BB),binding (IGF-BP5),binding (PDGF-DD),binding (FGF-7),binding (VEGF-A165),binding (PlGF-2),binding (IGF-BP3),binding (VEGF-B),Binder
binds,binds,binds,binds,binds,binds,binds,binds,binds,binds,binds,binds,binds,binds,,Fg β1-66 (protein) fibrinogen Bβ chain fragment: QGVNDNEEGFFSARGHRPLDKKREEAPSLRPAPPPISGGGYRARPAKAAATQKKVERKAPDAGGCG
,,,,,,,,,,,,,,binds,Fg β15-66 (protein) GSNQEQVSPLGHRPLDKKREEAPSLRPAPPPISGGGYRARPAKAAATQKKVERKAPDAGGCGHHHHHH
